Reference: paper PMC7819943, “Rice protein-binding microarrays: a tool to detect cis-acting elements near promoter regions in rice”
The other results are listed elsewhere or left out.

The chains behind the UniProt entries cited, without tags or fusion partners.
UniProt Q0JBA9, entry or part of it: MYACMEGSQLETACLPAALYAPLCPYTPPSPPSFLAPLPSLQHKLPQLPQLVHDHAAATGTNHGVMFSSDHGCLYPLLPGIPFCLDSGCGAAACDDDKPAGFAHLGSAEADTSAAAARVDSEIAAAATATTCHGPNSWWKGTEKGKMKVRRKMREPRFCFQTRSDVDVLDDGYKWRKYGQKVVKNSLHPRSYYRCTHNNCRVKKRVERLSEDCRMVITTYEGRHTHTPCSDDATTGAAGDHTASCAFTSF

biological target: OsWRKY34 (Oryza sativa, UniProt Q0JBA9 1-250); assay: protein-binding microarray (RPBM); PBS, 2% BSA, 51.3 ng/ul salmon testes DNA, 50 uM zinc acetate, 200 nM TF, 25 C, 1 h; high values mean tight binding; conditions: protein: recombinant; tags: N-terminal polyhistidine and DsRed monomer fusion (pET32a); label: CyDye5-dUTP incorporated in the synthesized complementary strand; 3' TTTTT single-stranded linker to array surface; dsDNA, one strand shown
In short: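 The binding signal for each feature is its fluorescence intensity in arbitrary units. An Axon 4000B scanner was used to read a custom Agilent array that had been made double-stranded with Cy5-dUTP primer extension, blocked with 2% BSA, incubated at 25 °C for 1 h with 200 nM protein in PBS, 2% BSA, salmon testes DNA and 50 µM zinc acetate, and washed. The protein was an N-terminal polyhistidine–DsRed transcription factor fusion from E. coli BL21-CodonPlus, purified on Ni–NTA.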

Sequence	binding signal
AATTTCTGCTGCCATTTTCTATGTTCTTTAGTCTAAGTTTCGGAGTCACCTAGTGCAG	14700 fluorescence intensity (a.u.)
TTGCTGAGCTCCGATGGAATTTTGCCGGTCAACGAGTTGTCGGAGTCACCTAGTGCAG	8180 fluorescence intensity (a.u.)
GGAGTTTATCACACATCTCTCAACATTTTTATCTTATATCCGGAGTCACCTAGTGCAG	8420 fluorescence intensity (a.u.)
GAAGCGGGTGGCGGTGGAGGAGCTCCGCCGGCGCGTTGACCGGAGTCACCTAGTGCAG	13600 fluorescence intensity (a.u.)
GGGCTTTGTTTAGTTCTCAAAATTTGTTTTCCAAAAACATCGGAGTCACCTAGTGCAG	8540 fluorescence intensity (a.u.)
GGGAGGGGAGGGGAGGGATGGCTGGACTGGACCGAGTGAGCGGAGTCACCTAGTGCAG	13800 fluorescence intensity (a.u.)
CATGTTCTTCGTCCCTCTGTCACAGCAGCTGCCTTTTACGCGGAGTCACCTAGTGCAG	11100 fluorescence intensity (a.u.)
GTCCCCATTGTTGCTGGCTTGCTGCATGTTCATCTTGTTGCGGAGTCACCTAGTGCAG	9520 fluorescence intensity (a.u.)
GTCACTCCTACTCCCGCCACCACCGGCCCAATGGCGCCCCCGGAGTCACCTAGTGCAG	9660 fluorescence intensity (a.u.)
GCGCTCAACTTTAATCGTCCGTTTTATTTGAAATTTTTTTCGGAGTCACCTAGTGCAG	8330 fluorescence intensity (a.u.)
AATTTTTTTTTCTGTACCTTTTCTTGTGATTCTGCGTCCACGGAGTCACCTAGTGCAG	8760 fluorescence intensity (a.u.)
TCCGCCACCGCCGCCTTCGCCGCTGCGGCGATCTCACTCGCGGAGTCACCTAGTGCAG	9670 fluorescence intensity (a.u.)
ATCGGGGTGTGACATATTTAGATCGTCTGGTAAAATTTTACGGAGTCACCTAGTGCAG	8280 fluorescence intensity (a.u.)
TAGTTTCCACTCCCTCTCCTCGGGGAGTCGTTGCTGTTCTCGGAGTCACCTAGTGCAG	9380 fluorescence intensity (a.u.)
AGCACAATCTATATTTAAACATTGACCATTCGTCTATTTTCGGAGTCACCTAGTGCAG	8260 fluorescence intensity (a.u.)
TCCTTAAAATATCTCGGGAGGTAGCATATTTTTTATTGTACGGAGTCACCTAGTGCAG	8670 fluorescence intensity (a.u.)
TCCCAACCCATCTCCCTCGTTTTCCGCGCGCACGCTTTTCCGGAGTCACCTAGTGCAG	14000 fluorescence intensity (a.u.)
AAATCGCTCTCATTACGTTTCTAGAATTTTTTTTTGTGTGCGGAGTCACCTAGTGCAG	8030 fluorescence intensity (a.u.)
TGCATTCCTGTTACACGCTTTATTAATTATTATATAAAAACGGAGTCACCTAGTGCAG	9720 fluorescence intensity (a.u.)
TTGTAGTACTAGGTCGTATCTAATACTAGTTGATTTTTTACGGAGTCACCTAGTGCAG	8190 fluorescence intensity (a.u.)
CTTCTTCATTTTCCACGCGCACAATTTTCAAACTGTTAAACGGAGTCACCTAGTGCAG	9790 fluorescence intensity (a.u.)

Retrieved one by one from the entries so far, two records:
Sequence	binding signal
GAAGCGGGTGGCGGTGGAGGAGCTCCGCCGGCGCGTTGACCGGAGTCACCTAGTGCAG	13600 fluorescence intensity (a.u.)
GCGCTCAACTTTAATCGTCCGTTTTATTTGAAATTTTTTTCGGAGTCACCTAGTGCAG	8330 fluorescence intensity (a.u.)

Further results follow.

Sequence	binding signal
TCTGTTGATGGATGTGGATGTTGTGCAGGTGACGCTGCAGCGGAGTCACCTAGTGCAG	9280 fluorescence intensity (a.u.)
CTTTTTTTATCATTTTGTTTCACTTTGAACTATTTTATTTCGGAGTCACCTAGTGCAG	10600 fluorescence intensity (a.u.)
CATCTCGCCAATTCTACTGAACATATGCTAGCTAATCCAACGGAGTCACCTAGTGCAG	9490 fluorescence intensity (a.u.)
TTCCACGTCCACCAACCGCCGCTTCGCCCTTCGCTGCTGCCGGAGTCACCTAGTGCAG	9300 fluorescence intensity (a.u.)
AAATGTGGTTTTGATGGTTTCCAACATATATTTATCGGTTCGGAGTCACCTAGTGCAG	8570 fluorescence intensity (a.u.)
AGCAGCAGCAGTACTCGCCCACCGGACACCACCCCATGCCCGGAGTCACCTAGTGCAG	9730 fluorescence intensity (a.u.)
CTTGCTGTCCTCTCGTTTCCTGTGTCATTCTCGCGCGCCACGGAGTCACCTAGTGCAG	9800 fluorescence intensity (a.u.)
TGTTCGTCGTCGTCGTCTCCCTCGCCGGCCGCGACGCCACCGGAGTCACCTAGTGCAG	8030 fluorescence intensity (a.u.)
ATTAAAGTTGGATACGGAAACCCAGGGTTTGTCTTTTTTTCGGAGTCACCTAGTGCAG	9170 fluorescence intensity (a.u.)
CTTCTTTGCATGCATGAGCTGCCAGCCTGTCCGTCCAATACGGAGTCACCTAGTGCAG	8150 fluorescence intensity (a.u.)
ACACCTGCCATGTGTCTCCACCATATAGTCCGTTATAACACGGAGTCACCTAGTGCAG	8670 fluorescence intensity (a.u.)
ATTCATGAGTGTGTAGGTGTGACGTTGCGTGTCTAGTGTTCGGAGTCACCTAGTGCAG	8180 fluorescence intensity (a.u.)
GCCATGCGATTTTCGAGCTGCATGCAGCATGGAACATTCCCGGAGTCACCTAGTGCAG	8280 fluorescence intensity (a.u.)
AATTTCCATTCTCCTCACACCTTTAAAAGTAGGCTCAAAACGGAGTCACCTAGTGCAG	8040 fluorescence intensity (a.u.)
ACTATACATATTGCATCTGTTGCATATAATACTGTATTTCCGGAGTCACCTAGTGCAG	8690 fluorescence intensity (a.u.)
TTTTTTGTTGCTCGGACTGAAGTTCCTGAGCCTTGATTTTCGGAGTCACCTAGTGCAG	10600 fluorescence intensity (a.u.)
GCGGGATGGCAGTTCTTACTTCTAGAGTTTTTTTATCTGACGGAGTCACCTAGTGCAG	9690 fluorescence intensity (a.u.)
GTTCTGTTCAACCTCGGTCTGCTCTGCACGTGCCCTGCGGCGGAGTCACCTAGTGCAG	8580 fluorescence intensity (a.u.)
AAATCGTCTCAAGTTTTACTTTGAATTTGTACTGTAGGTCCGGAGTCACCTAGTGCAG	8220 fluorescence intensity (a.u.)
TCCCTCCGCGTCAAAGGAAAATCTCCCGTCTTCGTCTCCGCGGAGTCACCTAGTGCAG	8350 fluorescence intensity (a.u.)
TCACAACATTCTCTCGTTTAATTTTACATACTTTTTCTAACGGAGTCACCTAGTGCAG	8560 fluorescence intensity (a.u.)
